The assay has as its target RheoSwitch® (CHO-K1_RS-1 cells, firefly Luciferase reporter) (Choristoneura fumiferana, UniProt O77240). In words: in vitro gene switch assay (fLUC Luciferase expression, potency screen). It is filed as cell-based. The note with it: read-out: fLUC assay EC50, 24 hours with compound, 25 μM to 2.5 pM, figure in parentheses after a value not defined. The procedure: Representative Compounds of the Disclosure were tested for biological activity in an in vitro gene switch assay (Tables 1 and 1A). Gene switch assays are disclosed, e.g., in U.S. Pat. Nos. 8,076,517; 7,456,315; 7,304,161; and 6,258,603.
CHO-K1 cells were stably transfected with a plasmid (RS-1, FIG. 1) coding for firefly Luciferase (fLUC) under the control of the RheoSwitch® resulting in the stable cell line CHO-K1_RS-1. A master cell bank was created containing approximately 100 vials at 5×10^6 cells per vial. One vial of CHO-K1_RS-1 was thawed and cultured for two weeks prior to each in vitro potency screening.
Twenty-four (24) hours prior to treatment with the control and test compounds the CHO-K1_RS-1 cells were seeded into white-opaque 384-well cell culture plates at 3,600 cells per well in 30 μl of culture medium. The cells were incubated in a humidified CO2 incubator at 37° C. until compound treatment.
Compounds were prepared at 25 mM in 100% dry DMSO and stored at room temperature in sealed 1 ml tubes prior to subsequent dilution and assay. […]
The cells were incubated with the compound for 24 hours in a humidified CO2 incubator at 37° C. […] The reagent was incubated with the cells for 10-120 minutes prior to reading on a Molecular Devices Spectramax L luminometer. […]

Protein sequences, listed by entry. Tags and fused reporters are not part of them. Residues count along the entry.
UniProt O77240, 1-513: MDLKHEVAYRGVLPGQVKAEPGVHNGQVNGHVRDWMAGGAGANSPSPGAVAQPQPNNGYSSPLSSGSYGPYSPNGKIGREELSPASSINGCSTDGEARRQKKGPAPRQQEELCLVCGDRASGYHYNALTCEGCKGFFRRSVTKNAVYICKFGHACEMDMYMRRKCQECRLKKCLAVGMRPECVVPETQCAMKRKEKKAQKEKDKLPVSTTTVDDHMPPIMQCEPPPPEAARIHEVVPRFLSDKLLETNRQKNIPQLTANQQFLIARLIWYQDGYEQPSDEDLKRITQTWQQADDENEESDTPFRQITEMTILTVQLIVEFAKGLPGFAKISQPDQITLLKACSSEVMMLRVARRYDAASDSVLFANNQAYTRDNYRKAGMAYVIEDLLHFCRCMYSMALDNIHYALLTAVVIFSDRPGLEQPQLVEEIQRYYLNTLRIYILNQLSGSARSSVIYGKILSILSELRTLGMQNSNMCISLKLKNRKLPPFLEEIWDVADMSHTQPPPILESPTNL

EC50 data for 1 compound are collected here from US9127024B2 (Intrexon Corporation, priority 2013, dated 2015).

Structures are written as SMILES. For part of its entries the source gives two or more results. This is not the full list of results. The source may hold further records. The records of an entry differ for a reason that is not stated; some may be repeats, others may stem from another dose, organism or construct than stated.

A word on the EC50: it is the concentration needed to bring the measured effect to its halfway point. On to `Cc1cc(C)cc(C(=O)N(NC(=O)c2ccc3c(c2C)OCCOB3O)C(C)C)c1`, for which the half-maximal effective concentration (EC50) is 7.4 µM and > 25 µM.
